Where a protein sequence is shown, tags need not be part of it. Construct, isoform or probe ends are uncertain for at least one entry.
Molecular target: T1, TP901-1 integrase (Lactococcus phage TP901-1) (UniProt Q38184)
T1 sequence (looked up, limits assumed): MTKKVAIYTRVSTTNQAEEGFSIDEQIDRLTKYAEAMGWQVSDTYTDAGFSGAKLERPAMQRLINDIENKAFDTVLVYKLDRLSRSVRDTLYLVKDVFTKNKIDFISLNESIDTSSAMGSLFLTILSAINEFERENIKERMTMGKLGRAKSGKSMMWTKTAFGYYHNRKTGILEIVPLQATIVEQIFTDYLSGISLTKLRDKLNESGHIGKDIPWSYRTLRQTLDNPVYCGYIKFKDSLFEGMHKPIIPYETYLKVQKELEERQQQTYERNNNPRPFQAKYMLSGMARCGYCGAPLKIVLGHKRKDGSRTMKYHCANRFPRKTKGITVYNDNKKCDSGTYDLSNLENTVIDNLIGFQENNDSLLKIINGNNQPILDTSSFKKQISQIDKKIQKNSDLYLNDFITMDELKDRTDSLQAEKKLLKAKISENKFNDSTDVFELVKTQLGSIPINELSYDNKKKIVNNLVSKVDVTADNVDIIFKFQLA
Experiment: activity in cells
Details: protein in cells

Sequence: ATCGATTGTTGTTTCATGATTCTCCTCCCCCAATGAGCTCCATAATACATAATTTTCAAACTGATAAAATGATTTTTCATAAATCCATTAGACGGTGCAAATATATGTTTTTAATGTTCTTCGTTTTTAGGCATCCCTCCTTTCAAGATAAATAATTTATACACTATTCTATTGGAATCTTAATCATTCCAATAGAAAAATATGTAATGATTATAAATAAGTCGCTTCTTATCATAAATATATTTACATATTCATTTAATACTACATCATGTTAGGTATAGTAAGGCTATCAAGGGTGTCTTAATTTCTACTTGTAACAATGTATTGGCATATTATATATTGAATTGAGAAAATTAAATACAGCGATAATTCACATGAACAAGTTCATTGGTAGTTATATTTTCAAATTTTCAAGGTTGTGCTTGTATGTCATTCTATAGTTAGATAAGCATTTGAGGTAGAGTCCGTCCGAATATATTTGTAATCTGAAGAAGGTTCAAACATATTTCTATATAACGTATTCTTTTTTTGTAGTTCTTACTTTTGAGGGGCGTTACAATTCAAAGATATTATCTTTAATTACCTTAATTGAAATAAACGAAATAAAAACTCGCAATTAAGCGAGTTGGACTCGAG (double strand)
- activity on this sequence (attP point change did not interfere with recombination with attB, B. subtilis): active

Sequence: CTGATAATTGCCAACACAATTAACATCTCAATCAAGGTAAATG (double strand) [attBmin]
- activity on this sequence (B. subtilis AEB165, recombination with attP plasmid pAEB153, 33 C, no xylose, PCR check, text assigns integration in amyE to A, C, D, variant of attB161, only the site is given): active

Sequence: GTGCCTGACTTTCAACTACTTTAACTACTGCTGCTTCACCAGTTTTTTGAACTTGTGCTTTTTCTTTTATCAAATTTGGCACAAAAAGCAAAATTAAAATACTGATAATTGCCAACACAATTAACATCTCAATCAAGGTAAATGCTTTTTGCTTTTTTTGC (double strand) [attB161]
- activity on this sequence (B. subtilis AEB165, recombination with attP plasmid pAEB153, 33 C, no xylose, PCR check): active

From US20080085535
